Experimental data published in PubChem BioAssay AID504834 (National Center for Advancing Translational Sciences (NCATS), 2011).
The whole screen tested about 320,000 compounds, of which about 22,000 (6.9%) were called active. Inconclusive means that the source gave no clear call. Such entries were picked first, then a sample of the others. Calls follow the shape of the dose curve; as a rule, active = well fitted inhibition curve with a large enough effect; inconclusive = small, poorly fitted or top-dose-only effect, or another doubt; inactive = no such curve, though single readings can be large or run the other way. Potencies of inconclusive entries are doubtful fits and often do not repeat.
% is scaled to controls: 0 for no effect and ±100 for the full control effect; potency is read from the fitted curve at half-maximal effect.

Assay: Primary qHTS for delayed death inhibitors of the malarial parasite plastid, 96 hour incubation
Conditions: P. falciparum luciferase reporter growth; series mostly up to 28.7 µM; activity change, negative = inhibition: at the top concentration
Procedure, shortened: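 Delayed-death screen, second-generation endpoint: infected erythrocytes, 2% hematocrit, 0.05% parasitemia final; 96 hours at 37 C, 5% CO2; luciferase detection reagent; luminescence decrease equals reduced growth.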
In the case of `CCCC(=O)Nc1ccc(C(N)=O)cc1`, the “activity change, negative = inhibition” value is reported as inactive: 50.3%. With `CCC(C)n1cnc2c(c1=O)c1nc3ccccc3nc1n2Cc1ccc2c(c1)OCO2` (stereo not drawn) the Potency was inconclusive: 0.738 µM [inhibitor, full curve]. For `COc1ccc(NC(=O)CN(C)S(=O)(=O)c2cccc3cccnc23)cc1`, the “activity change, negative = inhibition” value was inactive: -12%. In the case of `COCC(=O)NC1CCN(C(=O)NCc2ccccc2)CC1`, the “activity change, negative = inhibition” value is reported as inactive: 8.2%. With `CC(C)Oc1ccc(-c2nc(NCC3CCCO3)c3ccccc3n2)cc1` (stereo not drawn) the Potency was inconclusive: 5.86 µM [inhibitor, single point]. For `COc1ccc(OCc2nnc(SCC(=O)NC3CC4CCC3C4)o2)cc1` (stereo not drawn), the “activity change, negative = inhibition” value was inactive: 52.7%. With `CCCCOc1ccc([N+](=O)[O-])cc1C(=O)O` the Potency was inconclusive: 0.0037 µM [inhibitor, full curve, poor fit]. With `CC(=O)N1CCc2cc(S(=O)(=O)NCCCN3CCC(C)CC3)ccc21` the Potency was inconclusive: 18.5 µM [inhibitor, partial curve, poor fit]. In the case of `C/C(=N\NC(=O)c1ccc(Cn2cc(Br)cn2)o1)c1ccc(NC(=O)c2ccoc2C)cc1`, the Potency is reported as inconclusive: 8.28 µM [inhibitor, partial curve, poor fit]. In the case of `Nc1nnc(-c2ccc(F)cc2)s1`, the “activity change, negative = inhibition” value is reported as inactive: 9.33%. For `CC(CNC(=O)Cn1ccc(N)nc1=O)c1ccccc1` (stereo not drawn), the “activity change, negative = inhibition” value was inactive: -1.86%. With `CCOC(=O)C1(CCc2ccccc2)CCN(C(=O)CN2C(=O)CSC2=O)CC1` the “activity change, negative = inhibition” value was inactive: -3.16%. For `CCOc1ccc(OCCCC(=O)NCCc2ccc(OC)cc2)cc1`, the Potency was inconclusive: 18.5 µM [inhibitor, single point]. With `Cc1ccc(-c2cccc(C3CC=CC4C3C(=O)N(Cc3ccccc3)C4c3ccc4ccccc4c3)c2)cc1` (stereo not drawn) the Potency was inconclusive: 10.4 µM [inhibitor, single point]. With `CC1CN(CC(O)COc2ccc(C#N)cc2)CCN1CC(O)COc1ccc(C#N)cc1` (stereo not drawn) the “activity change, negative = inhibition” value was inactive: -6.28%. With `CCOc1cc(CNCCO)ccc1OCC(=O)NC(C)(C)C` the Potency was inconclusive: 6.57 µM [inhibitor, partial curve, poor fit]. With `COc1cccc(NC(=O)N2CCC(NC(=O)C(Cc3ccccc3OC)NC(C)=O)CC2)c1` (stereo not drawn) the Potency was inconclusive: 13.1 µM [inhibitor, partial curve, poor fit]. In the case of `CN(c1ccccc1)S(=O)(=O)c1ccc2[nH]c(=O)[nH]c2c1`, the “activity change, negative = inhibition” value is reported as inactive: 11.2%. With `CCCCNS(=O)(=O)c1ccc2nc(-c3cccnc3)cc(C(=O)NCCCOCC)c2c1` the Potency was inconclusive: 18.5 µM [inhibitor, single point]. For `COCCN(C(=O)COC(=O)CCc1nc2ccccc2s1)c1c(N)n(Cc2ccccc2)c(=O)[nH]c1=O`, the “activity change, negative = inhibition” value was inactive: 0.893%. In the case of `Cc1ccc(-c2nc(CNC(=O)c3ccco3)cs2)cc1`, the Potency is reported as inconclusive: 4.15 µM [inhibitor, partial curve, poor fit]. In the case of `COc1ccc(C(=O)Nc2c(N)nc(SCC(=O)Nc3ccc(NC(C)=O)cc3)[nH]c2=O)cc1`, the Potency is reported as active: 2.62 µM. In the case of `COc1cccc(CN(C)C(=O)CC23CC4CC(CC(C4)C2)C3)c1OC`, the Potency is reported as inconclusive: 11.7 µM [inhibitor, single point]. In the case of `CC(C)(C)C(=O)c1no[n+]([O-])c1/C(=N/O)C(C)(C)C`, the Potency is reported as inconclusive: 3.29 µM [inhibitor, partial curve]. In the case of `Cc1ccccc1C(=O)N1CCC(C(=O)Nc2nc3ccc(F)cc3s2)CC1`, the Potency is reported as inconclusive: 18.5 µM [inhibitor, single point]. With `CCN1/C(=C/C(C)=O)Sc2ccc(OC)cc21` the Potency was inconclusive: 14.7 µM [inhibitor, partial curve, poor fit]. In the case of `O=C(CCCCC(=O)NCCCc1ccccc1)NCCCc1ccccc1`, the Potency is reported as inconclusive: 8.28 µM [inhibitor, partial curve]. With `O=C(COc1coc(CN2CCc3ccccc3C2)cc1=O)Nc1ccc([N+](=O)[O-])cc1` the Potency was inconclusive: 13.1 µM [inhibitor, single point]. In the case of `Cc1cc(-c2nnc(SCCC(=O)Nc3ccccc3)o2)no1`, the Potency is reported as inconclusive: 18.5 µM [inhibitor, single point]. With `CN1CCN(c2ccc(Cl)cc2NC(=O)CCN2C(=O)c3ccccc3C2=O)CC1` the Potency was inconclusive: 18.5 µM [inhibitor, single point]. With `COc1cc(NC(=S)NCc2ccco2)cc(OC)c1OC` the Potency was active: 5.22 µM. With `CCOC(=O)C1CCCN(C(=O)CNS(=O)(=O)c2ccc(Br)s2)C1` (stereo not drawn) the Potency was inconclusive: 7.38 µM [inhibitor, single point]. For `Cc1ccccc1S(=O)(=O)Cc1ccc(C(=O)N2CC(C)CC(C)C2)o1` (stereo not drawn), the Potency was active: 16.5 µM. In the case of `O=C1C(=O)N(c2cccc(Cl)c2)C(c2ccccc2[N+](=O)[O-])/C1=C(\O)c1ccccc1` (stereo not drawn), the “activity change, negative = inhibition” value is reported as inactive: 35.1%. In the case of `Cc1c(Cl)cccc1NC(=O)Nc1cc(C(C)(C)C)nn1C`, the Potency is reported as inconclusive: 11.7 µM [inhibitor, partial curve, poor fit]. In the case of `O=C(COc1ccc(S(=O)(=O)NC2CCCCC2)cc1)NC1CCCCC1`, the Potency is reported as inconclusive: 2.08 µM [inhibitor, partial curve, poor fit]. In the case of `Cc1csc(NC(=O)C(C)Oc2ccc(Br)cc2)n1` (stereo not drawn), the Potency is reported as inconclusive: 11.7 µM [inhibitor, single point]. For `COC(=O)c1ccc(C(=O)OCc2nc3cc4ccccc4cc3[nH]2)cc1`, the Potency was inconclusive: 18.5 µM [inhibitor, single point]. For `O=C(O)c1ccccc1C(=O)N1CCN(c2ccccc2)CC1`, the Potency was inconclusive: 10.4 µM [inhibitor, partial curve, poor fit]. For `COc1cc(Br)cc(Br)c1OCC(=O)N/N=C/c1c(C)n(C)n(-c2ccccc2)c1=O`, the “activity change, negative = inhibition” value was inactive: -16.7%. In the case of `Cc1cc(C)cc(NC(=O)c2ccc(Cn3nc(C)c(Cl)c3C)o2)c1`, the Potency is reported as inconclusive: 18.5 µM [inhibitor, single point]. For `COc1ccccc1OCCNC(=O)c1cccc(S(=O)(=O)N2CCN(Cc3ccccc3)CC2)c1`, the “activity change, negative = inhibition” value was inactive: -26.4%. With `C/C(CCC(=O)OC[C@H]1O[C@H](C#Cc2ccccc2)C=C[C@@H]1Oc1ccc(C)cc1)=N\O[C@@H](C)CN1CCCCc2nc(C)c(C)cc21` the Potency was active: 4.15 µM. In the case of `COc1ccc(CCNC(=O)c2cccc(NC(=O)CC3SC(N4CCCCC4)=NC3=O)c2)cc1OC` (stereo not drawn), the Potency is reported as inconclusive: 5.86 µM [inhibitor, partial curve]. For `CCCc1ccc(OCc2ccc(C(=O)Nc3cccc(C)n3)o2)c(OC)c1`, the Potency was inconclusive: 3.7 µM [inhibitor, partial curve]. For `Cc1c(Nc2scc(-c3ccccc3)[n+]2-c2ccccc2)c(=O)n(-c2ccccc2)n1C`, the Potency was inconclusive: 9.28 µM [inhibitor, single point]. With `CS(=O)(=O)N(CC(=O)NCc1ccc2c(c1)OCO2)c1cccc(Cl)c1` the Potency was inconclusive: 13.1 µM [inhibitor, partial curve]. With `COc1ccc(NC(=O)N(CCN2CCCC2)Cc2cc3cc(OC)c(OC)cc3[nH]c2=O)cc1` the Potency was inconclusive: 10.4 µM [inhibitor, partial curve]. In the case of `COc1ccc(N2C(=O)CCC2=O)cc1`, the Potency is reported as inconclusive: 0.0738 µM [inhibitor, full curve, poor fit]. For `CCC(=NCCCN1CCOCC1)c1c(O)n(-c2ccccc2C)c(=O)[nH]c1=O`, the Potency was inconclusive: 0.0657 µM [inhibitor, full curve, poor fit]. With `CCCCCCCCCCCCOC(=O)C[N+](C)(C)C` the “activity change, negative = inhibition” value was inactive: 0%. With `CC(=O)Oc1ccc(/C=C2/SC(=S)N(Cc3ccccc3)C2=O)cc1` the Potency was inconclusive: 16.5 µM [inhibitor, single point]. For `COc1ccc(C(=O)Nc2ccc(N3CCN(C(=O)c4ccccc4C)CC3)cc2)cc1`, the Potency was inconclusive: 11.7 µM [inhibitor, single point]. For `O=C1NC(Cc2ccccc2)C(=O)N1Cc1cc([N+](=O)[O-])cc2c1OCOC2` (stereo not drawn), the “activity change, negative = inhibition” value was inactive: -14.4%. For `O=C(NCCCc1ccccc1)c1cnc2n(c1=O)CCS2`, the “activity change, negative = inhibition” value was inactive: -5.13%. For `Cn1c(COc2ccccc2)nc2ccccc21`, the “activity change, negative = inhibition” value was inactive: -7.59%. For `Cc1cc(C)c2cc(C(=O)Nc3ccccc3)[nH]c2c1`, the Potency was active: 8.28 µM. In the case of `CC1CN(S(=O)(=O)N2CCOCC2)CCN1S(=O)(=O)N1CCOCC1` (stereo not drawn), the Potency is reported as inconclusive: 3.7 µM [inhibitor, single point]. In the case of `C[N+](C)(C)CCNC(=O)c1cc[n+](Cc2ccccc2)c(/C=N/O)c1`, the “activity change, negative = inhibition” value is reported as inactive: -21.3%. For `Cc1cc(OCC(=O)N(C(C)C)C(C)C)ccc1Cl`, the “activity change, negative = inhibition” value was inactive: 51%. For `COC(=O)CC1(C(=O)OC)Oc2ccc(Br)cc2C(=O)N1c1cc(Cl)c(Cl)cc1Cl` (stereo not drawn), the Potency was inconclusive: 5.22 µM [inhibitor, partial curve]. For `CCN(CCn1cccn1)Cc1ccccc1OCC(O)CN1CCc2ccccc2C1` (stereo not drawn), the Potency was inconclusive: 10.4 µM [inhibitor, single point]. For `O=C(O)CC(NC(=O)c1ccco1)c1ccco1` (stereo not drawn), the Potency was inconclusive: 18.5 µM [inhibitor, single point]. With `CCOC(=O)C1(CC2CCCCO2)CCN(Cc2nc(-c3cccs3)oc2C)CC1` (stereo not drawn) the Potency was inconclusive: 13.1 µM [inhibitor, single point]. With `O=C(COc1coc(CN2CCN(c3ccccc3F)CC2)cc1=O)NCC1CCCO1` (stereo not drawn) the Potency was inconclusive: 13.1 µM [inhibitor, single point]. With `O=C(CCc1ccccc1)Nc1nc2ccc(S(=O)(=O)N3CCOCC3)cc2s1` the Potency was inconclusive: 18.5 µM [inhibitor, single point]. In the case of `O=C(CCc1ccc(S(=O)(=O)NCCc2ccccc2)cc1)NCc1ccc2c(c1)OCO2`, the Potency is reported as inconclusive: 10.4 µM [inhibitor, single point]. With `COc1cc(CC2COC(c3ccc(O)c(OC)c3)C2COC(C)=O)ccc1O` (stereo not drawn) the Potency was active: 10.4 µM.
